Results as given in PMC4263166.
Results are given in words; binding and its absence hold for the method and conditions named. In cells and extracts the contact can be indirect. Binding calls can cover weak binding; strength is not graded here.

Chains of the proteins cited; added tags and fusions are not shown. Lines headed by an entry give the natural chain unless they say otherwise; changes in a name come on top.
UniProt Q13588: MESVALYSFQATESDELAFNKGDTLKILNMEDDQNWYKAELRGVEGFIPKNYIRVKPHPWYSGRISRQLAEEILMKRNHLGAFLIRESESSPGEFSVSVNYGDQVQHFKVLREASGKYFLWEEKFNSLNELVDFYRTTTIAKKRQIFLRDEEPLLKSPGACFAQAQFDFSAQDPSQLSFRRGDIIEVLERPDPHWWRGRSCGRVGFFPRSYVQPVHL
UniProt P62993: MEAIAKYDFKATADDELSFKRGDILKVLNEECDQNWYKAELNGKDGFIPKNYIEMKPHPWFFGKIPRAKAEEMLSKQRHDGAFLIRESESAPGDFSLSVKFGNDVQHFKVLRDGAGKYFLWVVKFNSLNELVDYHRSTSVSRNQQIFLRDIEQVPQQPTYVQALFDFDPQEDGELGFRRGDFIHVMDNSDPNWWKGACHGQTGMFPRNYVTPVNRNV
UniProt Q06187: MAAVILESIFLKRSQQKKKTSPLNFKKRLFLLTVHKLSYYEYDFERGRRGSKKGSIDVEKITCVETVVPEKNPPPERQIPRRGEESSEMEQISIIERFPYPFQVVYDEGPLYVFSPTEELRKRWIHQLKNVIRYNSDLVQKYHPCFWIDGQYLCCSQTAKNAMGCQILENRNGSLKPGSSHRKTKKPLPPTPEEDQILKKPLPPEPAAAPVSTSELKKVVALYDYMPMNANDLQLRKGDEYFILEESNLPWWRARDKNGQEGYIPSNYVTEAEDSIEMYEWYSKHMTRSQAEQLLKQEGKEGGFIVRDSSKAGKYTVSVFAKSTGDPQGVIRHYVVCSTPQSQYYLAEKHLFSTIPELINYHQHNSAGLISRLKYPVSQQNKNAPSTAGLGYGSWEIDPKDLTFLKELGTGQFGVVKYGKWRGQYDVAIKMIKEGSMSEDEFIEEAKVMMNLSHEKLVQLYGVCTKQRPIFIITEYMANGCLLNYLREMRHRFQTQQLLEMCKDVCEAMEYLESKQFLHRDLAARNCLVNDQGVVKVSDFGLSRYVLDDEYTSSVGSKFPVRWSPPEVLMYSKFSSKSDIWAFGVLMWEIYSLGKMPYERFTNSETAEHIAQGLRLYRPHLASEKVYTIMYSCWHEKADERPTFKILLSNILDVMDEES
UniProt Q8WV28: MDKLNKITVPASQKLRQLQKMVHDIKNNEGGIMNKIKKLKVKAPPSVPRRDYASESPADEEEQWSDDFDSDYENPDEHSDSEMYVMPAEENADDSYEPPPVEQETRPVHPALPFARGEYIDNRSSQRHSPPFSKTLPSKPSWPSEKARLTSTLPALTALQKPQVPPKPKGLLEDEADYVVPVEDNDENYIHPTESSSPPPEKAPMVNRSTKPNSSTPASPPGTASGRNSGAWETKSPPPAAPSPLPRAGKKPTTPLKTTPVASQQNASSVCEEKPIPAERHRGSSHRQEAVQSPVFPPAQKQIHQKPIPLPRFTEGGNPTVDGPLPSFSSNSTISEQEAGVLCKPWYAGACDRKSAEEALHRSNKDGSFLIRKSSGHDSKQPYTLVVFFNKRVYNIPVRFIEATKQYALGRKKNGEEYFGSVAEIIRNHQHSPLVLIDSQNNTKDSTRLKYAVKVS

Assays:
[1] = target: GST-coupled N-terminal SH3 domain of GRAP (UniProt Q13588); test: pull-down; ~20 μg GST-coupled N-terminal SH3 domains on glutathione-sepharose beads; NP40 lysates of DG75 B cells stimulated via their BCR for 3 min; immunoblot; only the target purified
[2] = target: GST-coupled N-terminal SH3 domain of Grb2 (UniProt P62993); test: as above

| binding [1] | binding [2] | Substance |
| --- | --- | --- |
| no binding | binds | Bruton’s tyrosine kinase (Btk) (from UniProt Q06187 1-659) (enzyme) |
| binds weakly |  | adaptor protein SLP65 (BLNK) (from UniProt Q8WV28 1-456) |
